Test results: article PMC7819943, “Rice protein-binding microarrays: a tool to detect cis-acting elements near promoter regions in rice”
This is one part of the list.

By UniProt entry, the sequences of proteins in these tests, tags left out.
UniProt Q0JBA9, entry or part of it: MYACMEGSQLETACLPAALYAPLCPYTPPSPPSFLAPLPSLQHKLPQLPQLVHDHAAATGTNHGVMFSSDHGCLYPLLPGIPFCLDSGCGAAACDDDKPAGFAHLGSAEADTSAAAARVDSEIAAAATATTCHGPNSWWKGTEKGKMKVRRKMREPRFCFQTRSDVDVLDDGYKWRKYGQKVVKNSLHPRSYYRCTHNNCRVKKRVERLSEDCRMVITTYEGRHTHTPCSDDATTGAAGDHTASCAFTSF

molecular target: OsWRKY34 (Oryza sativa, UniProt Q0JBA9 1-250); assay: protein-binding microarray (RPBM); PBS, 2% BSA, 51.3 ng/ul salmon testes DNA, 50 uM zinc acetate, 200 nM TF, 25 C, 1 h; high values mean tight binding; details: protein: recombinant; tags: N-terminal polyhistidine and DsRed monomer fusion (pET32a); label: CyDye5-dUTP incorporated in the synthesized complementary strand; 3' TTTTT single-stranded linker to array surface; dsDNA, one strand shown
Summary of the method: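 The binding signal is fluorescence intensity per feature, in arbitrary units, read on an Axon 4000B scanner. Polyhistidine- and DsRed-tagged transcription factors (N-terminal fusions) from E. coli BL21-CodonPlus were purified on Ni–NTA and applied at 200 nM for 1 h at 25 °C to a double-stranded, BSA-blocked custom Agilent array in buffer with 50 µM zinc acetate.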

Row | Sequence | binding signal
1 | GGTGAGCACGACTAGTCGCGTATTAGCCTCTCGTCCGACGCGGAGTCACCTAGTGCAG | 8550 fluorescence intensity (a.u.)
2 | TTATCTTTTCTTTAAGCTCTGTACAACTTGCCAATATGTTCGGAGTCACCTAGTGCAG | 8540 fluorescence intensity (a.u.)
3 | GTGTTTTTTTGGACTGAGTTGTTTTTATTTTTGAGGGGAACGGAGTCACCTAGTGCAG | 10700 fluorescence intensity (a.u.)
4 | CGGCGGTGGGTCGTCTTCCTCGTTGCCGGTCGGCACCCTCCGGAGTCACCTAGTGCAG | 10800 fluorescence intensity (a.u.)
5 | GGGGTGTTTGGATAGGGCTAAAAATTTTTTAATCTCATTCCGGAGTCACCTAGTGCAG | 11100 fluorescence intensity (a.u.)
6 | GGTGCTTCAATTTGTTCTTATAATTTCTTGCTTGGTCTGCCGGAGTCACCTAGTGCAG | 13300 fluorescence intensity (a.u.)
7 | TATTATGAAAACACTATTCTCTCCCAATGCACAACTTAATCGGAGTCACCTAGTGCAG | 8320 fluorescence intensity (a.u.)
8 | TTCTTCGTTGCTGCTGGTTTGGTGGGAAGAAGAATTGGTGCGGAGTCACCTAGTGCAG | 8200 fluorescence intensity (a.u.)
9 | CTCGATCACGTACTACTACACATAGACCTACTACTTGAGCCGGAGTCACCTAGTGCAG | 8620 fluorescence intensity (a.u.)
10 | GCTCAAGAATTGAGCCCATAGTTCATCTGTTCTTTGCAAACGGAGTCACCTAGTGCAG | 8640 fluorescence intensity (a.u.)
11 | TGGTGGTTGACATGCGAGTCCTTTGACCCTATGTCATTTCCGGAGTCACCTAGTGCAG | 9510 fluorescence intensity (a.u.)
12 | GAGCTCTCATGTTCTGTTCGCTGTTAATTAATCGTCTAATCGGAGTCACCTAGTGCAG | 9580 fluorescence intensity (a.u.)
13 | CCCACTGCGCACCGCTTCCTGGTTCGCCTTGCTTCCCAATCGGAGTCACCTAGTGCAG | 8580 fluorescence intensity (a.u.)
14 | CTTGCTTGGCAACTGATCCGGCGCTCCACCATTCAACCGACGGAGTCACCTAGTGCAG | 8210 fluorescence intensity (a.u.)
15 | GCGCCCTGTCCGTCTTCAAGTTCATCCAAGCGCCGTCGGTCGGAGTCACCTAGTGCAG | 9590 fluorescence intensity (a.u.)
16 | CCTCCGCTCCTAAATATTTGACACCGCTGACTTTTTAAAACGGAGTCACCTAGTGCAG | 11100 fluorescence intensity (a.u.)
17 | CTCCGACGACCCCACCGTGCCCACCCCGACCGCCGTCTCGCGGAGTCACCTAGTGCAG | 9650 fluorescence intensity (a.u.)
18 | GTGACACGGTTTCCAAAACACAACATTGACTTTCTTATTTCGGAGTCACCTAGTGCAG | 8620 fluorescence intensity (a.u.)
19 | ACATTTCCTGACTTTGGCCAACACACACCCCTAACCCTCACGGAGTCACCTAGTGCAG | 11200 fluorescence intensity (a.u.)
20 | CACTAATTGATCAATTGCACAACAAATTGCTTGAATAACGCGGAGTCACCTAGTGCAG | 65500 fluorescence intensity (a.u.)
21 | CCGCCGCCGCCATCGTCCTCTTCCGCCACCACCGCCATCGCGGAGTCACCTAGTGCAG | 10000 fluorescence intensity (a.u.)

Row | Sequence | binding signal
22 | CGGCTCGGCTCGGCTCGCGCGGCGGCGGCGGCGGGGCGGCCGGAGTCACCTAGTGCAG | 8890 fluorescence intensity (a.u.)
23 | AGTGGGTGGTGGCGGGCGGCTAGAGTTTCGTACATATGCACGGAGTCACCTAGTGCAG | 13900 fluorescence intensity (a.u.)
24 | TCGAGGTGGGTTTAGTAGTGGCCTTGTGGGTTGGGCCAGTCGGAGTCACCTAGTGCAG | 12200 fluorescence intensity (a.u.)
25 | GGTGTTTCTCTGATTGAGGTCCTGCGCAGATCATCCTCTACGGAGTCACCTAGTGCAG | 9480 fluorescence intensity (a.u.)
26 | TAGGGTCCACTTGTCTCTCTCACAGAGTTTCTTGACTCTTCGGAGTCACCTAGTGCAG | 9740 fluorescence intensity (a.u.)
27 | TCCTCCGACTCGCCTCTTCCCACCAACTCCTTCCCCGATGCGGAGTCACCTAGTGCAG | 8180 fluorescence intensity (a.u.)
28 | CGGGCCCCACTTCCGTTCATTGCAAGTCGCTCCCAGCGCACGGAGTCACCTAGTGCAG | 8120 fluorescence intensity (a.u.)
29 | TCTTCAGCAGCATTCAACAGGGACGAAAATCCTTCTGCACCGGAGTCACCTAGTGCAG | 8380 fluorescence intensity (a.u.)
30 | GACTCATGTTCTCTGATTATTTTGATTTGTTAATCCAGCTCGGAGTCACCTAGTGCAG | 8210 fluorescence intensity (a.u.)
31 | AAAGGCTGCACGAGCCACTTGTATTACGTTGTCATTCCTTCGGAGTCACCTAGTGCAG | 8400 fluorescence intensity (a.u.)
32 | GAGATGATCCGCGTCCCTAATTCTATCGTTTGCGTTGTCACGGAGTCACCTAGTGCAG | 8850 fluorescence intensity (a.u.)
33 | ATTGTGCATTCCCCTTGCTGCTCGCTCCTCTAGATACATGCGGAGTCACCTAGTGCAG | 8720 fluorescence intensity (a.u.)
34 | ACCGGGCCAACAACACCACCACGACACGAATACTCTAAAACGGAGTCACCTAGTGCAG | 9160 fluorescence intensity (a.u.)
35 | GCGGGGTTCGTGGTGTGTGCGTGTGCGTCTCTCTCTGTCTCGGAGTCACCTAGTGCAG | 21100 fluorescence intensity (a.u.)
36 | TGGTTGTGGTGGTGGTGGTGGTGGTCACATCCGCTGCACTCGGAGTCACCTAGTGCAG | 8280 fluorescence intensity (a.u.)
37 | AGCGACAATGGGGTTGGGAGTGGATGGCGAGCTCGAGCTCCGGAGTCACCTAGTGCAG | 11900 fluorescence intensity (a.u.)
38 | TAATCCGCTGCCATCACCGGACGTTTTTTAAGCGGTTACACGGAGTCACCTAGTGCAG | 8730 fluorescence intensity (a.u.)
39 | CTCACTTACCCTAGCATGTTAACACTTGTAGTATCGGCGCCGGAGTCACCTAGTGCAG | 12700 fluorescence intensity (a.u.)
40 | ATGGGTAATATGTCTCACCCTGCTTGGTTGGTTTCGCATTCGGAGTCACCTAGTGCAG | 8030 fluorescence intensity (a.u.)
41 | ATCATCCTTATAGGCACACACAGTTCTCCTAGATCAGCACCGGAGTCACCTAGTGCAG | 8540 fluorescence intensity (a.u.)
42 | GGGAAAAGCACCGAAAAGCGCGGCCTTTTTTTCTTCTTTTCGGAGTCACCTAGTGCAG | 8540 fluorescence intensity (a.u.)

As a short view, part of the list above:
Row | Sequence | binding signal
24 | TCGAGGTGGGTTTAGTAGTGGCCTTGTGGGTTGGGCCAGTCGGAGTCACCTAGTGCAG | 12200 fluorescence intensity (a.u.)
25 | GGTGTTTCTCTGATTGAGGTCCTGCGCAGATCATCCTCTACGGAGTCACCTAGTGCAG | 9480 fluorescence intensity (a.u.)
26 | TAGGGTCCACTTGTCTCTCTCACAGAGTTTCTTGACTCTTCGGAGTCACCTAGTGCAG | 9740 fluorescence intensity (a.u.)
